The campaign covered roughly 360,000 compounds. About 7,500 (2.1%) were called active. The shares of active, inactive and inconclusive entries below differ from those in the screen. Calls follow the shape of the dose curve; as a rule, active = well fitted inhibition curve with a large enough effect; inconclusive = small, poorly fitted or top-dose-only effect, or effect the other way; inactive = flat fitted curve, though single readings scatter. Where the call is inconclusive, the potency comes from a doubtful curve fit.
Experiment: Nrf2 qHTS screen for inhibitors; also: nearly all actives have a fitted effect of over 60% in size
Conditions: A549 ARE-Fluc reporter, luciferase luminescence, 18-24 h; series mostly up to 46 µM
Summary of the method: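 Reporter: ARE-Fluc in A549. Exposure: 18-24 h, 37 °C, 5% CO2, 5% FBS OPTI-MEM. Readouts: fluorescent cytotoxicity (CellTiter-Fluor), then luminescent Nrf2 signal after BugLite.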
Potency is read from the fitted curve at half-maximal effect.

Row | Structure (SMILES) | Potency
1 | COc1cc(NC(=O)N2CCC(CN3CCCCCC3)CC2)cc(OC)c1OC | inconclusive: 29.1 µM [activator, single point]
2 | CC(=O)c1ccc(-c2cccc(-c3cc(=O)oc4ccc(C(C)(C)C)cc34)c2)cc1 | inconclusive: 29.1 µM [falling, single point]
3 | CCCCOc1ccc(C2CC(=O)N(C)C2=O)cc1 (stereo not given) | inconclusive: 3.66 µM [activator, full curve, poor fit]
4 | CCN1CCN(CCC(=O)Nc2ccc3c(c2)OCO3)CC1 | inconclusive: 16.4 µM [activator, partial curve, poor fit]
5 | O=C(Nc1nc(-c2nc3ccccc3s2)cs1)c1ccco1 | inconclusive: 23.1 µM [activator, single point]
6 | Cc1cccc(S(=O)(=O)c2cn(C)c3cc(N4CCN(c5ccccc5)CC4)c(F)cc3c2=O)c1 | inconclusive: 16.4 µM [falling, partial curve, poor fit]
7 | CCc1sc(-c2cc3ccc(O)cc3oc2=O)nc1-c1ccc(C)cc1 | inactive
8 | Cc1ccccc1C(=O)N1CCN(c2ccc(NC(=O)c3ccc([N+](=O)[O-])o3)cc2)CC1 | inconclusive: 29.1 µM [activator, single point]
9 | O=C(OCn1ncc(Cl)c(Cl)c1=O)c1cccc(C(F)(F)F)c1 | inactive
10 | COc1ccc(C(C)(C)C)cc1NC(=O)CSc1ncn[nH]1 | inconclusive: 13 µM [falling, partial curve, poor fit]
11 | CCOCCCNC(=O)c1ccc2nc(-c3ccc(OC)c(OC)c3)c(-c3ccc(OC)c(OC)c3)nc2c1 | inconclusive: 25.9 µM [falling, partial curve, poor fit]
12 | COc1ccc(/C=N/NC(=O)CCCOc2ccc(Cl)cc2Cl)cc1[N+](=O)[O-] | inconclusive: 1.84 µM [falling, partial curve, poor fit]
13 | O=C(c1ccc(COc2ccc(F)cc2)o1)n1cc(Br)cn1 | inconclusive: 16.4 µM [activator, partial curve]
14 | O=C(COC(=O)c1ccc(F)c([N+](=O)[O-])c1)NC(=O)NCc1ccccc1 | inactive
15 | CC(C)CC(COCc1ccc(Cl)cc1)N1CCN(C(=O)c2ccc(Cl)cc2Cl)CCC1=O (stereo not given) | active: 20.6 µM
16 | COc1ccccc1NC(=O)C1=C(C)Nc2nc(-c3ccco3)nn2C1c1ccccc1F (stereo not given) | inconclusive: 2.06 µM [falling, partial curve, poor fit]
17 | COc1cc(CC(=O)NC2CCCc3ccccc32)cc(OC)c1OC (stereo not given) | inconclusive: 14.6 µM [falling, partial curve, poor fit]
18 | CN1CCN(c2ccc(CNC(=O)c3ccc4c(c3)OCCO4)cc2)CC1 | inconclusive: 18.4 µM [activator, partial curve]
19 | COc1ccc(/C(C)=N/NC(=O)CNC(=O)/C=C\c2ccccc2OC)c(OC)c1 | inactive
20 | CC(C)(C)c1ccc(S(=O)(=O)N2CCN(c3nc(-c4cccs4)nc4ccccc34)CC2)cc1 | inactive
21 | COc1ccc(-c2onc3ccc(C(=O)/C=C/N(C)C)cc23)cc1 | inconclusive: 2.59 µM [activator, partial curve]
22 | O=C(Cn1nc(C(F)(F)F)c2c1CCCC2)NCc1ccco1 | inconclusive: 25.9 µM [falling, partial curve, poor fit]

Row | Structure (SMILES) | Potency
23 | CCc1noc(C)c1C(=O)Nc1ccc(S(=O)(=O)N2CCC(C)CC2)cc1 | inconclusive: 25.9 µM [falling, single point]
24 | CC(C)C(=O)Nc1cccc(NC(=S)NC(=O)c2cccs2)c1 | inconclusive: 9.2 µM [activator, partial curve, poor fit]
25 | O=C(Nc1ccc(Cl)c(Cl)c1)Nc1ccc([N+](=O)[O-])cn1 | inconclusive: 0.103 µM [falling, full curve, poor fit]
26 | Clc1cccc(Oc2ncc(CN3CCOCC3)s2)c1 | inconclusive: 1.3 µM [activator, full curve]
27 | CC(C)CNC(=O)COC(=O)c1c2c(nc3ccccc13)/C(=C/c1cccs1)CC2 | inconclusive: 2.59 µM [activator, full curve, poor fit]
28 | COc1ccc(/C=N/NC(=O)CN(Cc2ccccc2)S(=O)(=O)c2ccc3c(c2)OCCO3)cc1 | inconclusive: 29.1 µM [falling, single point]
29 | O=C(Cc1ccccc1)Nc1cccc(NC(=O)c2ccccc2)c1 | active: 25.9 µM
30 | COc1ccc(OC)c(Cc2nnc(CCC(=O)NCc3ccsc3)o2)c1 | inconclusive: 18.4 µM [activator, partial curve]
31 | O=C(CCCOc1ccc(Cl)cc1Cl)NCCCn1ccnc1 | inconclusive: 20.6 µM [falling, single point]
32 | Cn1c(=O)cc(Nc2ccccc2)c2c(=O)n(-c3ccccc3)c(=O)n(-c3ccccc3)c21 | inconclusive: 16.4 µM [falling, single point]
33 | O=S(=O)(NC(=NCCc1ccc(Cl)cc1)c1ccccc1Cl)c1cccs1 | inconclusive: 20.6 µM [falling, partial curve]
34 | COc1cc([N+](=O)[O-])ccc1NC(=S)N1CCN(c2ccccn2)CC1 | inconclusive: 23.1 µM [falling, single point]
35 | O=C(NCCNc1ccc([N+](=O)[O-])cc1C(F)(F)F)c1cccc(F)c1 | inconclusive: 20.6 µM [falling, single point]
36 | O=C(NC1CCN(C(=O)Nc2cccc(Cl)c2)CC1)c1ccccc1 | inconclusive: 9.2 µM [falling, partial curve, poor fit]
37 | Cc1ccc(CNC(=O)c2ccccc2N)cc1 | inactive
38 | COC(=O)CCC(=O)Nc1ccc(S(=O)(=O)Nc2nc(C)cc(C)n2)cc1 | inactive
39 | COc1ccc2nc(NC(=O)C3CCCN(S(=O)(=O)c4cccc5nsnc45)C3)sc2c1 (stereo not given) | inconclusive: 16.4 µM [falling, single point]
40 | COc1ccc(N2CCN(C(=O)CCC(=O)N3Cc4ccccc4Oc4ncccc43)CC2)cc1 | inconclusive: 6.51 µM [falling, partial curve, poor fit]
41 | COc1cc(CN2CCN(C(C)C)C(CCO)C2)ccc1OCc1ccccc1 (stereo not given) | inconclusive: 8.2 µM [activator, partial curve]
42 | COc1ccc(O)c(C(=O)c2coc(=N)c(C(=O)Nc3ccc(SC(F)F)cc3)c2)c1 | inactive
43 | Cc1nn(-c2cccc(C(F)(F)F)c2)c(=O)c2ccccc12 | inactive
44 | O=c1ccc2cc(S(=O)(=O)Nc3ccc(OC(F)(F)F)cc3)ccc2[nH]1 | inconclusive: 25.9 µM [falling, single point]

2 records picked at random from those above, as already listed:
Row | Structure (SMILES) | Potency
32 | Cn1c(=O)cc(Nc2ccccc2)c2c(=O)n(-c3ccccc3)c(=O)n(-c3ccccc3)c21 | inconclusive: 16.4 µM [falling, single point]
33 | O=S(=O)(NC(=NCCc1ccc(Cl)cc1)c1ccccc1Cl)c1cccs1 | inconclusive: 20.6 µM [falling, partial curve]

More compounds.

Row | Structure (SMILES) | Potency
45 | CCN(CC)S(=O)(=O)c1ccc(C(=O)NCCCn2ccnc2)cc1 | inconclusive: 6.51 µM [activator, single point]
46 | CCn1c(CNC(=O)c2cc(OC)c(OC)c(OC)c2)cc2cc(C)ccc21 | inconclusive: 16.4 µM [falling, single point]
47 | Cn1c(=O)c2c(nc(NCCNC(=O)c3ccco3)n2Cc2ccc(F)cc2)n(C)c1=O | inconclusive: 25.9 µM [falling, single point]
48 | CCOC(=O)N1CCN(CC(=O)Nc2ccc(Oc3ccccc3)cc2)CC1 | inconclusive: 29.1 µM [falling, single point]
49 | CCOCCCNS(=O)(=O)c1ccc(NC(=O)c2ccccc2)cc1 | inconclusive: 29.1 µM [falling, single point]
50 | Cc1cc(=O)[nH]c(SCC(=O)c2ccc(O)c(O)c2)n1 | inactive
51 | Cc1ccc(NC2CC(=O)N(c3ccc(C)cc3)C2=O)cc1 (stereo not given) | inactive
52 | Cn1c(-c2ccccc2)cc2ccccc21 | inconclusive: 16.4 µM [activator, partial curve, poor fit]
53 | COc1nn(-c2ccccc2)c(=O)c(Cl)c1Cl | inactive
54 | CC(C)(C)c1n[nH]c2c1CCCC2 | inactive
55 | C/C(N)=C(/C#N)C(=O)CSc1n[nH]c(-c2cccs2)n1 | inconclusive: 29.1 µM [activator, single point]
56 | C#CCOCCOCCOCCNc1nc(N2CCN(C(=O)CCCCCCCCCCNC(=O)[C@H](CCCCN)n3cc(CCCC(=O)O)nn3)CC2)nc(N2CCN(C(=O)CCCCCCCCCCNC(=O)[C@@H]([C@H](C)O)n3cc(C)nn3)CC2)n1 | inactive
57 | COc1ccc(C(C(=O)NC(C)(C)C)N(C[C@H]2CC[C@@H]([C@@H]3CC[C@H](CO)O3)O2)C(=O)c2ccccc2)cc1 (stereo not given in full) | inactive
58 | O=C(Cn1[nH]c(=O)c2ccccc2c1=O)OCC(=O)c1ccc(Br)cc1 | inactive
59 | Cc1c(C(=O)O/N=C(\N)c2ccccn2)cccc1[N+](=O)[O-] | inconclusive: 0.82 µM [activator, partial curve]
60 | CN(C(=O)c1cc(COc2c(F)cccc2F)on1)C1CCOC1 (stereo not given) | inconclusive: 13 µM [activator, single point]
61 | CCOC(=O)c1cccc(NC(=O)COc2ccc([N+](=O)[O-])cc2)c1 | active: 25.9 µM
62 | Cc1cccc(NC(=O)c2sc3nc(-c4cc5ccc(O)cc5oc4=O)[nH]c(=O)c3c2C)c1 | inconclusive: 29.1 µM [activator, single point]
63 | COc1ccccc1NC(=O)c1ccc(NS(=O)(=O)c2ccc(F)c(Cl)c2)cc1 | inconclusive: 25.9 µM [falling, single point]
64 | C=C(C)c1ccccc1 | inactive
65 | COc1ccc(C2Nc3ccccc3C(=O)N2Cc2ccccc2)cc1Oc1ccc(NC(C)=O)cc1 (stereo not given) | inconclusive: 20.6 µM [falling, single point]
